Tested on: primary CLL samples (PBMC from CLL patients), HLA class I ligands
Assay: HLA class I ligandome analysis by LC-MS/MS (frequency of HLA restricted presentation)
Parameters: species or system human
Details: CLL patient HLA class I ligandomes (n = 30)

Row | Substance | Number of positive CLLs
1 | 96 (APLQRSQSL; listed as Homo sapiens) [compound 96] | 6
2 | 97 (DEVHQDTY; listed as Homo sapiens) [compound 97] | 1
3 | 98 (LPHSATVTL; listed as Homo sapiens) [compound 98] | 1
4 | 99 (SEAPEAPLL; listed as Homo sapiens) [compound 99] | 1
5 | 100 (SPRASGSGL; listed as Homo sapiens) [compound 100] | 6
6 | 101 (VVGPAAEAK; listed as Homo sapiens) [compound 101] | 2
7 | 102 (FSITKSVEL; listed as Homo sapiens) [compound 102] | 4
8 | 103 (GQTKNDLVV; listed as Homo sapiens) [compound 103] | 1
9 | 104 (LSQEVCRD; listed as Homo sapiens) [compound 104] | 2
10 | 105 (RDIQSPEQI; listed as Homo sapiens) [compound 105] | 1
11 | 106 (REDNSSNSL; listed as Homo sapiens) [compound 106] | 1
12 | 107 (TEHQEPGL; listed as Homo sapiens) [compound 107] | 2
13 | 108 (TKNDLVVSL; listed as Homo sapiens) [compound 108] | 1
14 | 109 (AEEAGGTRL; listed as Homo sapiens) [compound 109] | 1
15 | 110 (ENVNKKDY; listed as Homo sapiens) [compound 110] | 1
16 | 111 (GLDPNKPPEL; listed as Homo sapiens) [compound 111] | 4
17 | 112 (RPAGEPYNRKTL; listed as Homo sapiens) [compound 112] | 2
18 | 113 (SASVQRADTSL; listed as Homo sapiens) [compound 113] | 5
19 | 114 (YGNPRTNGM; listed as Homo sapiens) [compound 114] | 2
20 | 115 (LIRPVSASF; listed as Homo sapiens) [compound 115] | 3
21 | 116 (SPVNSSKQPSY; listed as Homo sapiens) [compound 116] | 3
22 | 117 (QLFSYAILGF; listed as Homo sapiens) [compound 117] | 1
23 | 118 (DEHLLIQHY; listed as Homo sapiens) [compound 118] | 2

Row | Substance | Number of positive CLLs
24 | 119 (KQVASSTGF; listed as Homo sapiens) [compound 119] | 1
25 | 120 (RDFGPASQHFL; listed as Homo sapiens) [compound 120] | 1
26 | 121 (RQLGEVASF; listed as Homo sapiens) [compound 121] | 2
27 | 122 (TEAETTANVL; listed as Homo sapiens) [compound 122] | 1
28 | 123 (GYLPVQTVL; listed as Homo sapiens) [compound 123] | 1
29 | 124 (GQKEALLKY; listed as Homo sapiens) [compound 124] | 1
30 | 125 (KPSEERKTI; listed as Homo sapiens) [compound 125] | 1
31 | 126 (KQTPKVLVV; listed as Homo sapiens) [compound 126] | 1
32 | 127 (SVIQHVQSF; listed as Homo sapiens) [compound 127] | 1
33 | 128 (TPIERIPYL; listed as Homo sapiens) [compound 128] | 3
34 | 129 (AEVEKNETV; listed as Homo sapiens) [compound 129] | 1
35 | 130 (EVKEEIPLV; listed as Homo sapiens) [compound 130] | 1
36 | 131 (KPTSARSGL; listed as Homo sapiens) [compound 131] | 2
37 | 132 (KYIETTPLTI; listed as Homo sapiens) [compound 132] | 1
38 | 133 (SEIKTSIEV; listed as Homo sapiens) [compound 133] | 1
39 | 134 (SVKPTSATK; listed as Homo sapiens) [compound 134] | 4
40 | 135 (YPNKGVGQA; listed as Homo sapiens) [compound 135] | 1
41 | 136 (ISMKILNSL; listed as Homo sapiens) [compound 136] | 2
42 | 137 (KTIAFLLPMF; listed as Homo sapiens) [compound 137] | 1
43 | 138 (RDSIINDF; listed as Homo sapiens) [compound 138] | 2
44 | 139 (SVKGGGGNEK; listed as Homo sapiens) [compound 139] | 1
45 | 140 (GIAKTGSGK; listed as Homo sapiens) [compound 140] | 1
46 | 141 (AETTDNVFTL; listed as Homo sapiens) [compound 141] | 1

Row | Substance | Number of positive CLLs
47 | 142 (SEYQRFAVM; listed as Homo sapiens) [compound 142] | 3
48 | 143 (TFGERVVAF; listed as Homo sapiens) [compound 143] | 1
49 | 144 (NENLVERF; listed as Homo sapiens) [compound 144] | 2
50 | 145 (KITVPASQK; listed as Homo sapiens) [compound 145] | 1
51 | 146 (KITVPASQKL; listed as Homo sapiens) [compound 146] | 7
52 | 147 (VPASQKLRQL; listed as Homo sapiens) [compound 147] | 2
53 | 148 (HVGYTLSYK; listed as Homo sapiens) [compound 148] | 1
54 | 149 (KLPLPLPPRL; listed as Homo sapiens) [compound 149] | 3
55 | 150 (KPIEPRREL; listed as Homo sapiens) [compound 150] | 1
56 | 151 (SHSHVGYTL; listed as Homo sapiens) [compound 151] | 3
57 | 152 (APSEYRYTL; listed as Homo sapiens) [compound 152] | 1
58 | 153 (APSEYRYTLL; listed as Homo sapiens) [compound 153] | 3
59 | 154 (EIFQNEVAR; listed as Homo sapiens) [compound 154] | 1
60 | 155 (KDVLIPGKL; listed as Homo sapiens) [compound 155] | 1
61 | 156 (VPLVREITF; listed as Homo sapiens) [compound 156] | 2
62 | 157 (DPNPNFEKF; listed as Homo sapiens) [compound 157] | 1
63 | 158 (IQAPLSWEL; listed as Homo sapiens) [compound 158] | 1
64 | 159 (VIYNEQMASK; listed as Homo sapiens) [compound 159] | 3
65 | 160 (VLRPGGAFY; listed as Homo sapiens) [compound 160] | 2
66 | 161 (EDPDQDILI; listed as Homo sapiens) [compound 161] | 1
67 | 162 (HGNLRELAL; listed as Homo sapiens) [compound 162] | 3
68 | 163 (KLYPTLVIR; listed as Homo sapiens) [compound 163] | 4
69 | 164 (SEETFRFEL; listed as Homo sapiens) [compound 164] | 1

Row | Substance | Number of positive CLLs
70 | 165 (ELNKLLEEI; listed as Homo sapiens) [compound 165] | 3
71 | 166 (IPFSNPRVL; listed as Homo sapiens) [compound 166] | 2
72 | 167 (LLDEGAKLLY; listed as Homo sapiens) [compound 167] | 2
73 | 168 (SPADAHRNL; listed as Homo sapiens) [compound 168] | 1
74 | 169 (AELERQAVL; listed as Homo sapiens) [compound 169] | 1
75 | 170 (GRVPGPLSL; listed as Homo sapiens) [compound 170] | 1
76 | 171 (SDLARLILL; listed as Homo sapiens) [compound 171] | 1
77 | 172 (TPIREQHVL; listed as Homo sapiens) [compound 172] | 3
78 | 173 (APRKGNTL; listed as Homo sapiens) [compound 173] | 1
79 | 174 (EEEEALQKKF; listed as Homo sapiens) [compound 174] | 1
80 | 175 (KENLVDGF; listed as Homo sapiens) [compound 175] | 2
81 | 176 (VYKENLVDGF; listed as Homo sapiens) [compound 176] | 2
82 | 177 (TLLVVVPKL; listed as Homo sapiens) [compound 177] | 6
83 | 178 (HEIDRYTAI; listed as Homo sapiens) [compound 178] | 1
84 | 179 (VFTLKPLEF; listed as Homo sapiens) [compound 179] | 3
85 | 180 (YWVPRNAL; listed as Homo sapiens) [compound 180] | 2
86 | 181 (IGVEHVVVY; listed as Homo sapiens) [compound 181] | 5
87 | 182 (RDKPHVNV; listed as Homo sapiens) [compound 182] | 1
88 | 183 (ADVLKVEVF; listed as Homo sapiens) [compound 183] | 2
89 | 184 (IPVVHASI; listed as Homo sapiens) [compound 184] | 1

Reference: patent US10450346B2, “Immunotherapy against several tumors of the blood, in particular chronic lymphoid leukemia (CLL)” (Immatics biotechnologies GmbH, priority 2014, dated 2019)
